These are yes or no findings as the source states them, for the method shown. In cells and extracts the contact can be indirect. These calls come from enrichment with a bait or labelling near it, and not all partners need be listed. Tags and fused reporters may be left off the sequences shown.
B1: Prp3 (protein, UniProt O43395 1-683)
chain: MALSKRELDELKPWIEKTVKRVLGFSEPTVVTAALNCVGKGMDKKKAADHLKPFLDDSTLRFVDKLFEAVEEGRSSRHSKSSSDRSRKRELKEVFGDDSEISKESSGVKKRRIPRFEEVEEEPEVIPGPPSESPGMLTKLQIKQMMEAATRQIEERKKQLSFISPPTPQPKTPSSSQPERLPIGNTIQPSQAATFMNDAIEKARKAAELQARIQAQLALKPGLIGNANMVGLANLHAMGIAPPKVELKDQTKPTPLILDEQGRTVDATGKEIELTHRMPTLKANIRAVKREQFKQQLKEKPSEDMESNTFFDPRVSIAPSQRQRRTFKFHDKGKFEKIAQRLRTKAQLEKLQAEISQAARKTGIHTSTRLALIAPKKELKEGDIPEIEWWDSYIIPNGFDLTEENPKREDYFGITNLVEHPAQLNPPVDNDTPVTLGVYLTKKEQKKLRRQTRREAQKELQEKVRLGLMPPPEPKVRISNLMRVLGTEAVQDPTKVEAHVRAQMAKRQKAHEEANAARKLTAEQRKVKKIKKLKEDISQGVHISVYRVRNLSNPAKKFKIEANAGQLYLTGVVVLHKDVNVVVVEGGPKAQKKFKRLMLHRIKWDEQTSNTKGDDDEESDEEAVKKTNKCVLVWEGTAKDRSFGEMKFKQCPTENMAREHFKKHGAEHYWDLALSESVLESTD
B2: Edc4 (protein, UniProt Q6P2E9 1-1401)
chain: MASCASIDIEDATQHLRDILKLDRPAGGPSAESPRPSSAYNGDLNGLLVPDPLCSGDSTSANKTGLRTMPPINLQEKQVICLSGDDSSTCIGILAKEVEIVASSDSSISSKARGSNKVKIQPVAKYDWEQKYYYGNLIAVSNSFLAYAIRAANNGSAMVRVISVSTSERTLLKGFTGSVADLAFAHLNSPQLACLDEAGNLFVWRLALVNGKIQEEILVHIRQPEGTPLNHFRRIIWCPFIPEESEDCCEESSPTVALLHEDRAEVWDLDMLRSSHSTWPVDVSQIKQGFIVVKGHSTCLSEGALSPDGTVLATASHDGYVKFWQIYIEGQDEPRCLHEWKPHDGRPLSCLLFCDNHKKQDPDVPFWRFLITGADQNRELKMWCTVSWTCLQTIRFSPDIFSSVSVPPSLKVCLDLSAEYLILSDVQRKVLYVMELLQNQEEGHACFSSISEFLLTHPVLSFGIQVVSRCRLRHTEVLPAEEENDSLGADGTHGAGAMESAAGVLIKLFCVHTKALQDVQIRFQPQLNPDVVAPLPTHTAHEDFTFGESRPELGSEGLGSAAHGSQPDLRRIVELPAPADFLSLSSETKPKLMTPDAFMTPSASLQQITASPSSSSSGSSSSSSSSSSSLTAVSAMSSTSAVDPSLTRPPEELTLSPKLQLDGSLTMSSSGSLQASPRGLLPGLLPAPADKLTPKGPGQVPTATSALSLELQEVEPLGLPQASPSRTRSPDVISSASTALSQDIPEIASEALSRGFGSSAPEGLEPDSMASAASALHLLSPRPRPGPELGPQLGLDGGPGDGDRHNTPSLLEAALTQEASTPDSQVWPTAPDITRETCSTLAESPRNGLQEKHKSLAFHRPPYHLLQQRDSQDASAEQSDHDDEVASLASASGGFGTKVPAPRLPAKDWKTKGSPRTSPKLKRKSKKDDGDAAMGSRLTEHQVAEPPEDWPALIWQQQRELAELRHSQEELLQRLCTQLEGLQSTVTGHVERALETRHEQEQRRLERALAEGQQRGGQLQEQLTQQLSQALSSAVAGRLERSIRDEIKKTVPPCVSRSLEPMAGQLSNSVATKLTAVEGSMKENISKLLKSKNLTDAIARAAADTLQGPMQAAYREAFQSVVLPAFEKSCQAMFQQINDSFRLGTQEYLQQLESHMKSRKAREQEAREPVLAQLRGLVSTLQSATEQMAATVAGSVRAEVQHQLHVAVGSLQESILAQVQRIVKGEVSVALKEQQAAVTSSIMQAMRSAAGTPVPSAHLDCQAQQAHILQLLQQGHLNQAFQQALTAADLNLVLYVCETVDPAQVFGQPPCPLSQPVLLSLIQQLASDLGTRTDLKLSYLEEAVMHLDHSDPITRDHMGSVMAQVRQKLFQFLQAEPHNSLGKAARRLSLMLHGLVTPSLP
B3: Prp4 (protein, UniProt O43172 1-522)
chain: MASSRASSTQATKTKAPDDLVAPVVKKPHIYYGSLEEKERERLAKGESGILGKDGLKAGIEAGNINITSGEVFEIEEHISERQAEVLAEFERRKRARQINVSTDDSEVKACLRALGEPITLFGEGPAERRERLRNILSVVGTDALKKTKKDDEKSKKSKEEYQQTWYHEGPNSLKVARLWIANYSLPRAMKRLEEARLHKEIPETTRTSQMQELHKSLRSLNNFCSQIGDDRPISYCHFSPNSKMLATACWSGLCKLWSVPDCNLLHTLRGHNTNVGAIVFHPKSTVSLDPKDVNLASCAADGSVKLWSLDSDEPVADIEGHTVRVARVMWHPSGRFLGTTCYDRSWRLWDLEAQEEILHQEGHSMGVYDIAFHQDGSLAGTGGLDAFGRVWDLRTGRCIMFLEGHLKEIYGINFSPNGYHIATGSGDNTCKVWDLRQRRCVYTIPAHQNLVTGVKFEPIHGNFLLTGAYDNTAKIWTHPGWSPLKTLAGHEGKVMGLDISSDGQLIATCSYDRTFKLWMAE
B4: NHP2L1 (protein, UniProt P55769 1-128)
chain: MTEADVNPKAYPLADAHLTKKLLDLVQQSCNYKQLRKGANEATKTLNRGISEFIVMAADAEPLEIILHLPLLCEDKNVPYVFVRSKQALGRACGVSRPVIACSVTIKEGSQLKQQIQSIQQSIERLLV

Amino acid sequences for entries named in this document (tags omitted).
UniProt A5YKK6: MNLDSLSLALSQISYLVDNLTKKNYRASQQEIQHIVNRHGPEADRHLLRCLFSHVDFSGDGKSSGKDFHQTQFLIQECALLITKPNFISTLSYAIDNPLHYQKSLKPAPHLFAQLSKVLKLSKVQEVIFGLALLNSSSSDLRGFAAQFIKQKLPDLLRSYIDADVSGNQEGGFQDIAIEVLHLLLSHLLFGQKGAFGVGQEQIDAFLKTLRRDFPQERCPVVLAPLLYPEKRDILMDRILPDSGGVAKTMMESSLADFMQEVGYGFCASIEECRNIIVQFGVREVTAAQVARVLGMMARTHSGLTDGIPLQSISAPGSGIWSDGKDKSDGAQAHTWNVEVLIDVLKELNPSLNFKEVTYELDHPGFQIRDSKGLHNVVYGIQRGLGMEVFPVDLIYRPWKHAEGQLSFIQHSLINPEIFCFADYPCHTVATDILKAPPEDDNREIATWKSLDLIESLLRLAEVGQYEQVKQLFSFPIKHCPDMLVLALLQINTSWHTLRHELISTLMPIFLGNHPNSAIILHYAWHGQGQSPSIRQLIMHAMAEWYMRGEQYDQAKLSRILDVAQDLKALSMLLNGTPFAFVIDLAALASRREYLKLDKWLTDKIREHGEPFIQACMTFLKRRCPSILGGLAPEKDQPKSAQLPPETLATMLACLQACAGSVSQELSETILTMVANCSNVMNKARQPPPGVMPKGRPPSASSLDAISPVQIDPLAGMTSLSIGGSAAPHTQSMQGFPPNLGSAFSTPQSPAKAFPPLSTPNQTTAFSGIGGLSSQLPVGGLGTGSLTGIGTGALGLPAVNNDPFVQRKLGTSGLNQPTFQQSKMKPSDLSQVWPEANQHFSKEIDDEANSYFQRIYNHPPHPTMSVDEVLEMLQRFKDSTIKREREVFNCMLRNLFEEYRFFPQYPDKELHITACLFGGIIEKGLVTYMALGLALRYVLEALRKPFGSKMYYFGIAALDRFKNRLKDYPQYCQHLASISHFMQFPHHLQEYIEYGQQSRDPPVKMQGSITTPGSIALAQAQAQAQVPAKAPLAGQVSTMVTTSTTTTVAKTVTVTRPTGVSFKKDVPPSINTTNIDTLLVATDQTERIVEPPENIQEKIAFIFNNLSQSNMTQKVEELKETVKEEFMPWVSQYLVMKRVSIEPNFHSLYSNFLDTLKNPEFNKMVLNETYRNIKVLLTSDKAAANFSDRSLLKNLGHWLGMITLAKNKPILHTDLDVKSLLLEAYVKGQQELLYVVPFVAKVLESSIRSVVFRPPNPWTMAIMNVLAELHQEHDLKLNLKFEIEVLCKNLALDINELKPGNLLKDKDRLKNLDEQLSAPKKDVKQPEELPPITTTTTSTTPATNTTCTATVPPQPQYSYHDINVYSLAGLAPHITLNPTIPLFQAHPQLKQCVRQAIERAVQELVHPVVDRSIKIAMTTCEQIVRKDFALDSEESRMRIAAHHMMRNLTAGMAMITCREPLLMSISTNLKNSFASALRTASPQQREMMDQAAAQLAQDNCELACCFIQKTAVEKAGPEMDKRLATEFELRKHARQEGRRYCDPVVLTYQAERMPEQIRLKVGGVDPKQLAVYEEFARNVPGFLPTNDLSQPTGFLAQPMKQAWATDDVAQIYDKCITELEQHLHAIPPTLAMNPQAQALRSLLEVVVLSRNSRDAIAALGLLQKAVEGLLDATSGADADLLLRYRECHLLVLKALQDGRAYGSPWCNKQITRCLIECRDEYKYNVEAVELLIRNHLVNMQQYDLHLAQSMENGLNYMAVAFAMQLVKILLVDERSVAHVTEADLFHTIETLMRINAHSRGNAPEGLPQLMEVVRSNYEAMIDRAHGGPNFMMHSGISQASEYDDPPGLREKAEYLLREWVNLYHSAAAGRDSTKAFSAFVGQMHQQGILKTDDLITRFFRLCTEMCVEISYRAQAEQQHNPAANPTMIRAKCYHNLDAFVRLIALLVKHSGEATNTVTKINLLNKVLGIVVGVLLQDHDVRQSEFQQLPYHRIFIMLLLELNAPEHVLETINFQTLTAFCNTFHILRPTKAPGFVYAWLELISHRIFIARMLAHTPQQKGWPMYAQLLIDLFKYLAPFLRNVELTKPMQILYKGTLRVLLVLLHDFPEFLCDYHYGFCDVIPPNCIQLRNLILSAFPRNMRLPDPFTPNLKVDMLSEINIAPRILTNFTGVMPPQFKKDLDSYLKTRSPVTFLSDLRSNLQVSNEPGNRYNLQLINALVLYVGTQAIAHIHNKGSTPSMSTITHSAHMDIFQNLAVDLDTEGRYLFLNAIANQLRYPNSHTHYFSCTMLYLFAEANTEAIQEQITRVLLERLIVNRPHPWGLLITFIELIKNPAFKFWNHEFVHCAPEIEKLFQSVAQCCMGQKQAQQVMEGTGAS
UniProt Q96F86: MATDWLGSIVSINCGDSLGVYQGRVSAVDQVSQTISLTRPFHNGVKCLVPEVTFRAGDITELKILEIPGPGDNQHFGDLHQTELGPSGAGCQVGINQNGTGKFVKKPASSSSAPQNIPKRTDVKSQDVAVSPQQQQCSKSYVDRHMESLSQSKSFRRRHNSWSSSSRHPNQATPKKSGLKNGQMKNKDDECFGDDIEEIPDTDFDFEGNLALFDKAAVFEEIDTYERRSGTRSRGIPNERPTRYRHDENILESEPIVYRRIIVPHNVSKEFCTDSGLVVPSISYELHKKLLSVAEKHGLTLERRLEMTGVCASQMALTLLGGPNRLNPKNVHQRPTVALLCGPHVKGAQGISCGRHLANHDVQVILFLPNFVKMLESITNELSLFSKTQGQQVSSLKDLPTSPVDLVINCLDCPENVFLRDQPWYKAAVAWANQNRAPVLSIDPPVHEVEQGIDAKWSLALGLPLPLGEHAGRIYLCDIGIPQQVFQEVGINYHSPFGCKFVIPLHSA
UniProt Q8IZH2: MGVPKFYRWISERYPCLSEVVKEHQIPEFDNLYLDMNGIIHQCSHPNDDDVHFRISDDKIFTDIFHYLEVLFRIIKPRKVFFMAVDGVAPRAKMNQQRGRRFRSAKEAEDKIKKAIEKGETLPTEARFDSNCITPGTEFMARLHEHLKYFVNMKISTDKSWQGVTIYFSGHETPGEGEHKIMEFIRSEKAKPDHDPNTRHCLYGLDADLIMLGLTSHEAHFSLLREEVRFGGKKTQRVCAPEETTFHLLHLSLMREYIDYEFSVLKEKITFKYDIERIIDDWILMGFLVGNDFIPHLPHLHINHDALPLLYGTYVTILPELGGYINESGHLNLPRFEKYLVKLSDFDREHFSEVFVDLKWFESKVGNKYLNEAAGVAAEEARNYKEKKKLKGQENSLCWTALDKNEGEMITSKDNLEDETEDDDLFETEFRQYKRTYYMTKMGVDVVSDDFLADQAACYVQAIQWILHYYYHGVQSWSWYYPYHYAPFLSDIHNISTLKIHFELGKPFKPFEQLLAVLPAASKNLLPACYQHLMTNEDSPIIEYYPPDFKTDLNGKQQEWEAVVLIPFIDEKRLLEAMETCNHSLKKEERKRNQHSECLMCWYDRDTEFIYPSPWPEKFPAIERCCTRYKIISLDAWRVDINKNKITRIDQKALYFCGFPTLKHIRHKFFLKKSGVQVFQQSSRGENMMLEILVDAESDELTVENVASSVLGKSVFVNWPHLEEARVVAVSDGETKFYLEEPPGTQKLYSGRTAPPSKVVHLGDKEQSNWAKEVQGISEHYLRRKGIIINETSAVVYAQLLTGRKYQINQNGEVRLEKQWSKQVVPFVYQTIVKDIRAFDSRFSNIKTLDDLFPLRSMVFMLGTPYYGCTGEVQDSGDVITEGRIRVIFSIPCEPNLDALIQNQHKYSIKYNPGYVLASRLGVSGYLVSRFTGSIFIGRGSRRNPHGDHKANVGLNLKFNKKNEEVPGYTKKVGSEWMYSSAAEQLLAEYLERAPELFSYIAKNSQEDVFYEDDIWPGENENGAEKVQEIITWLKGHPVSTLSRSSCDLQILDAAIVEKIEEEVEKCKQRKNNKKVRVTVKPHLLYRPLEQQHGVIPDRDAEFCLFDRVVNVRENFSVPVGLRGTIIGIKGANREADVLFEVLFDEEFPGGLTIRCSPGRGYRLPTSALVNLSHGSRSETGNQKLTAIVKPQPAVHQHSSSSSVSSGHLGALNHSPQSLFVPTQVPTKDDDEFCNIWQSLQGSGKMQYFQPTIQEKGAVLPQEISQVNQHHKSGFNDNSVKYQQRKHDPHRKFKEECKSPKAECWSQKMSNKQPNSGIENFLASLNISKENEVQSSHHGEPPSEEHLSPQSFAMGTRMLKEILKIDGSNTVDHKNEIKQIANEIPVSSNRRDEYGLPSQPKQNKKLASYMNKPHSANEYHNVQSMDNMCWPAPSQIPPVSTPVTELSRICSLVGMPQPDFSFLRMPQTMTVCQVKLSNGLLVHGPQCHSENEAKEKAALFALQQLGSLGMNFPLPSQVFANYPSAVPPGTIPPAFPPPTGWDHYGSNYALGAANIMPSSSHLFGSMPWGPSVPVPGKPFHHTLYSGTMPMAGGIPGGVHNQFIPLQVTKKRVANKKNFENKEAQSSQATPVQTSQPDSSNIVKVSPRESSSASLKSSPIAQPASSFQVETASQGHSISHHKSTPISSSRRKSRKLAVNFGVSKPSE

Assays:
[1] = molecular target: T1, YFP-Pat1b (human) (UniProt Q86TB9); assay: affinity purification with mass spectrometry; GFP-Trap pull-down of YFP-Pat1b from HEK293 cells, mass spectrometry
T1 sequence: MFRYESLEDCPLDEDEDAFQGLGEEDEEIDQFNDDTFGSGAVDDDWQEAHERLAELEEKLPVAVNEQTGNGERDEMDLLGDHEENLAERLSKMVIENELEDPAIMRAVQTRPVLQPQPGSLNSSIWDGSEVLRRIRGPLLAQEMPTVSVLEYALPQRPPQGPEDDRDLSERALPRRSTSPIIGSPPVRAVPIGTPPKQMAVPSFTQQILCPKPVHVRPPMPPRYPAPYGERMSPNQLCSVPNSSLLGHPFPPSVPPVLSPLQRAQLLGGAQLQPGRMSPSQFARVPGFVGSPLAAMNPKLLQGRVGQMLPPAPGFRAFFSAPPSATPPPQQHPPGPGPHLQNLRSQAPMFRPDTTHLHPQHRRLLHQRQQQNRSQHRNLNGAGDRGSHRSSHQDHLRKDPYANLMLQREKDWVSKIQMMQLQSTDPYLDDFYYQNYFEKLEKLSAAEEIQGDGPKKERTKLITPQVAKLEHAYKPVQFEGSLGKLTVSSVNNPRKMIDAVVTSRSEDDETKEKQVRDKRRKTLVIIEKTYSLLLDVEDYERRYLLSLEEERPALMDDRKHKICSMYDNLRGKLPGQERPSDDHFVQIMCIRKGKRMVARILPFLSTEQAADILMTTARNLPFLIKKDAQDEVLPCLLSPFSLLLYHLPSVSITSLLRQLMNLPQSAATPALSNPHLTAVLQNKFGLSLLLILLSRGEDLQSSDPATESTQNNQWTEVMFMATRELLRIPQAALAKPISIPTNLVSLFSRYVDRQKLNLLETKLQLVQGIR

[2] = molecular target: T2, FLAG-Pat1b (full-length) (human) (UniProt Q86TB9); assay: affinity purification with mass spectrometry; FLAG-Pat1b or FLAG-GFP transiently expressed in HEK293 cells; total cell lysates on anti-FLAG M2 beads, eluted with FLAG peptide, SDS-PAGE, GELC/MS/MS
T2 sequence: T1 sequence

Molecule	binding [1]	binding [2]
CNOT1 (from UniProt A5YKK6 1-2376)	binds	binds
Dcp2 (from UniProt Q8IU60 1-420)	binds	
Edc3 (from UniProt Q96F86 1-508)	binds	
Xrn1 (from UniProt Q8IZH2 1-1706)	binds	binds
snRNP200/Brr2 (from UniProt O75643 1-2136)	binds	binds
B1	binds	binds
B2	binds	binds
B3	binds	binds
B4	binds	

From publication PMC5554784
